# Values quoted from earlier work in patent US9169224B2, “Piperazinyl and piperidinyl ureas as modulators of fatty acid amide hydrolase” (Janssen Pharmaceutica NV, priority 2004, dated 2015).
# Like-named read-outs stand apart in the source and are kept apart here. At least one compound was matched to its structure with a doubt left.
# Legend:
# rats [1] = conditions: WO 02/087569; cited from earlier work
# rats [2] = conditions: WO 02/087569; cited from earlier work; remark: listed apart in the source
structure (smiles),measurement,setting,value
Cc1nc(-c2ccccc2)c(-c2ccccc2)n1CCCCCCNC(=O)Oc1ccccc1F [BMS-1],analgesic effect,rats [1],analgesic effect
same,analgesic effect,rats [2],analgesic effect
